# According to patent US8178873B2, “Solution processable organic semiconductors” (3M Innovative Properties Company, priority 2007, dated 2012):
# Some results were stated once for a whole list of compounds, not compound by compound.
# Experiment: Differential Scanning Calorimetry, thermal stability
# Type: physicochemical
# Conditions: DSC, heated from 30 to 350° C. at 10° C. per minute
# Procedure: Differential Scanning Calorimetry Measurement
# Differential Scanning Calorimeter (DSC, TA Instruments 2920 from TA Instruments of New Castle, Del.) was used to measure phase transition and melting point of the small molecule semiconductors. Examples 1 to 8 were heated from 30 to 350° C. at a heating rate of 10° C. per minute. […] No decomposition was observed up to the 350° C. of the testing range. […] Example 9 was heated from 30 to 360° C. at a heating rate of 10° C. per minute. […] Example 9 started to decompose around 357° C.
smiles,measurement,value
"Cc1ccc(-c2ccc3c(C#C[Si](C(C)C)(C(C)C)C(C)C)c4cc(-c5ccc(C)s5)ccc4c(C#C[Si](C(C)C)(C(C)C)C(C)C)c3c2)s1 [Example 2, 2,6-Bis(5-methyl-thiophene-2-yl)-9,10-bis-[(triisopropylsilyl)ethynyl]anthracene]",Decomposition temperature (no decomposition observed up to),> 350 °C
